{
  "sequences": {"note": "The chains behind the UniProt entries cited, without tags or fusion partners. Where a name states a change or a piece, a line headed by the entry shows the natural chain unless it says otherwise.", "UniProt P08253": "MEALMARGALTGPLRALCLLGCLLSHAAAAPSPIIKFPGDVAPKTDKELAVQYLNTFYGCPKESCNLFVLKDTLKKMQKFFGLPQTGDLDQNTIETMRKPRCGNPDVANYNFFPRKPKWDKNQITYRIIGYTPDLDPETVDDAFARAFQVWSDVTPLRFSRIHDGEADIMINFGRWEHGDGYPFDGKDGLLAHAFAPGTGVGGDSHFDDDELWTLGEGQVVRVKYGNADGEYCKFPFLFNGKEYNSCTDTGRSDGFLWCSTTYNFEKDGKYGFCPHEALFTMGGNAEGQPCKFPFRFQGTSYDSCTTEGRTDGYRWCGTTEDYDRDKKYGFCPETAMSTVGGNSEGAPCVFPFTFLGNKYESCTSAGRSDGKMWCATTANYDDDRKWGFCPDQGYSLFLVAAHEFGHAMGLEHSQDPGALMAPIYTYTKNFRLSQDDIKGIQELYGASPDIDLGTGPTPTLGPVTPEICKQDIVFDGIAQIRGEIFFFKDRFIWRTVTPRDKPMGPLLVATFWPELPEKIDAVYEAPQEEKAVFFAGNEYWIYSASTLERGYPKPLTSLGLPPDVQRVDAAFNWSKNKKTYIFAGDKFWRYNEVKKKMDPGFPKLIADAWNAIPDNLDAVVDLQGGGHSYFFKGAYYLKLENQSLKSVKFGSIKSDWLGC"},
  "source": "paper PMC6733871",
  "biological_target": "T1, LPL in the co-immunoprecipitation with MMP2 (UniProt P13796)",
  "T1 sequence": "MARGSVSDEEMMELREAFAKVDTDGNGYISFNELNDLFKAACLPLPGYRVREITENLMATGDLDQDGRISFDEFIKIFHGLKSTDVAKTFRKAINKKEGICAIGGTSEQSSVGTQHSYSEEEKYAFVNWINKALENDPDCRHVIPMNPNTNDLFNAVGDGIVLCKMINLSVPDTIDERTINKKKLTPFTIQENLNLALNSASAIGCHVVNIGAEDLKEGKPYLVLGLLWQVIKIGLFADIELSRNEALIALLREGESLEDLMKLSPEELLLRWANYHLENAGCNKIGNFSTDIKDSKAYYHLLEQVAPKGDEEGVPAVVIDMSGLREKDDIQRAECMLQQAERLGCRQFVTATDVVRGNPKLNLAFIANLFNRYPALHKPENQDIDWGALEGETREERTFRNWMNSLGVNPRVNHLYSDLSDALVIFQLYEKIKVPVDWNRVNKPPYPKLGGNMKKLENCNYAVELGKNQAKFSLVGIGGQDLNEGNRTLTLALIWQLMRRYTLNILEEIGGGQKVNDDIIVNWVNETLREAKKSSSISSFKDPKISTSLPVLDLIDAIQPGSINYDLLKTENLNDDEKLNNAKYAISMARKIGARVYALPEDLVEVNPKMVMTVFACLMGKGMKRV",
  "assay": "co-IP; co-immunoprecipitation of MMP2 and LPL; conditions not told in the text shown (Supplementary Fig. 6e)",
  "note": "Results are given in words; binding and its absence hold for the method and conditions named. In cells and extracts the contact can be indirect. Binding can be weak; no strength is given.",
  "data": [
    {"substance": "MMP2 (from UniProt P08253) (enzyme)", "values": [
      {"measurement": "binding", "result": "binds"}
    ]}
  ]
}
